Earlier results in patent publication US20230398114A1, “METHODS OF TREATING CORONAVIRUS DISEASE AND COMPOUNDS FOR SAME” (priority 2020, published 2023).
For at least one compound, name, drawing or mass did not settle the structure.

Sequences of proteins named here, by UniProt entry; tags and fusion partners are left off. Residues count along the entry.
UniProt P17948, 27-1338: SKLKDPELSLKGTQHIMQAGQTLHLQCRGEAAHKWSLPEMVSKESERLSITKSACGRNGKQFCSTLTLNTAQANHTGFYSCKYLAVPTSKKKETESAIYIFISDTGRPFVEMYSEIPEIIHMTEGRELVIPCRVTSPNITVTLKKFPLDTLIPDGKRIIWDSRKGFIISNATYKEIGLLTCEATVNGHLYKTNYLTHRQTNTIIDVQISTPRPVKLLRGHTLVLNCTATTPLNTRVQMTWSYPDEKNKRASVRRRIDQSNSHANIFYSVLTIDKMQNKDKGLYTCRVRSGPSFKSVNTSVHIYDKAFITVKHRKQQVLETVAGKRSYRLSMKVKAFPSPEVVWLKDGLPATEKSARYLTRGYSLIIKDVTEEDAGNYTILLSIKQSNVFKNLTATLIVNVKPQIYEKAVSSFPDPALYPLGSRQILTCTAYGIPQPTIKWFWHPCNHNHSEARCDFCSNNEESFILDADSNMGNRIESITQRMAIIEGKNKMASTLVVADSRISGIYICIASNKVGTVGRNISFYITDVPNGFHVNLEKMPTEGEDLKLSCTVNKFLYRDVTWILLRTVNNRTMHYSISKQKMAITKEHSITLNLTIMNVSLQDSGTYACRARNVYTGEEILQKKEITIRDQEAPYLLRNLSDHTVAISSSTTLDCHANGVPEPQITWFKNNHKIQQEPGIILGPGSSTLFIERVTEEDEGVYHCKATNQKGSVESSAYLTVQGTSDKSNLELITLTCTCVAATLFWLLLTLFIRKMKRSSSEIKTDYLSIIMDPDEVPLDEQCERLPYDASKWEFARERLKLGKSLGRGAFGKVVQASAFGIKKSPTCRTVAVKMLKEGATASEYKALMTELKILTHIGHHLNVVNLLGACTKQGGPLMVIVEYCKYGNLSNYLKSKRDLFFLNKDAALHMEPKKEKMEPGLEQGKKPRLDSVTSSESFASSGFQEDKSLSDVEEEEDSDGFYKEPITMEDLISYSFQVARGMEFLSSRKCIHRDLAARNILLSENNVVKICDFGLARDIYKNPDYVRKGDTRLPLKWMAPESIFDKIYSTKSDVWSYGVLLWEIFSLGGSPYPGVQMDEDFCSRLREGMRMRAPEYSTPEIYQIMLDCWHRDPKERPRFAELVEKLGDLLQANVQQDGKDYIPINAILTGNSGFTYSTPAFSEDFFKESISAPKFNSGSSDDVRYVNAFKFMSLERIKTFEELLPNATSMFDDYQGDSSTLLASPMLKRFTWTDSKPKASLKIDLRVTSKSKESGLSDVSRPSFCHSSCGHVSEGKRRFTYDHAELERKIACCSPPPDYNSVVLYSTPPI

Assays:
Settings in all cases: cited from earlier work
proto-oncogene TK Src = proto-oncogene TK Src (Homo sapiens, UniProt P12931)
EGFR = EGFR (Homo sapiens, UniProt P00533)
TXK = target: T1, TXK (Homo sapiens, UniProt P42681)
T1 sequence (P42681 1-527): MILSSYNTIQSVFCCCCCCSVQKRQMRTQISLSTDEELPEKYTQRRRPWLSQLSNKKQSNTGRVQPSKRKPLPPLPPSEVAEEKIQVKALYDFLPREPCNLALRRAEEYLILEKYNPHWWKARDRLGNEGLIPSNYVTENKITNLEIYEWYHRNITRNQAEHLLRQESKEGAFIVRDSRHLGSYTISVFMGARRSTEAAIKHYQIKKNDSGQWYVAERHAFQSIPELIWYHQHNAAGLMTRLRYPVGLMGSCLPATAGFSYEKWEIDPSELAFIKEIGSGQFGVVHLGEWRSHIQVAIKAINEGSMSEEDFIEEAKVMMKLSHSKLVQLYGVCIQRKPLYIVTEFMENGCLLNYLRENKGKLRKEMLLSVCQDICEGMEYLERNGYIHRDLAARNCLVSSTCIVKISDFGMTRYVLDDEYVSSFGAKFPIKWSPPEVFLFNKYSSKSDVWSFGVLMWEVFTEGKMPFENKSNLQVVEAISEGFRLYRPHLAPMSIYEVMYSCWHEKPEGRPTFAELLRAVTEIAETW

[1] = target: vascular Endothelial Growth Factor (VEGF) receptor 1 (VEGF1) (Homo sapiens, UniProt P17948)

COc1cc(Nc2c(C#N)cnc3cc(OCCCN4CCN(C)CC4)c(OC)cc23)c(Cl)cc1Cl [Bosutinib]
known to target (value in brackets, measure not stated) (proto-oncogene TK Src): 1.1 nM

C=CC(=O)N1CCC[C@@H](n2nc(-c3ccc(Oc4ccccc4)cc3)c3c(N)ncnc32)C1 [Ibrutinib]
known to target (value in brackets, measure not stated) (EGFR): 1.3 nM | known to target (value in brackets, measure not stated) (TXK): 2.3 nM

CNC(=O)c1ccccc1Sc1ccc2c(/C=C/c3ccccn3)n[nH]c2c1 [Axitinib]
known to target (value in brackets, measure not stated) [1]: 0.2 nM
